The list shows a part of the results. Hit calls seldom repeat between salt and free forms of one compound.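 Kinases, fused to nanoluciferase, were expressed in K562 cells; luminescence was measured every 4 h from 2 to 18 h as percent of control (DMSO = 100%, positive control = 0%). A time point is decreased if signal falls significantly (2 sigma). Hits were called by the authors by a rule that is not shown; the count of time points alone does not decide it.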
Legend:
Assay in all cases: kinase-Nluc reporter destabilization hit call (1 = scored as downregulated) (binary); higher = compound decreases kinase abundance
Conditions in all cases: K562; 2-18 h
EGFR = EGFR (UniProt P00533)
EGFR_G719S = EGFR_G719S (UniProt P00533)
EGFR_G719S_T790M = EGFR_G719S_T790M (UniProt P00533)
EGFR_L718V = EGFR_L718V (UniProt P00533)
EGFR_L858R = EGFR_L858R (UniProt P00533)
EGFR_L861Q = EGFR_L861Q (UniProt P00533)
EGFR_T790M = EGFR_T790M (UniProt P00533)
EPHA2 = EPHA2 (UniProt P29317)
ERBB3 = ERBB3 (UniProt P21860)
[1] = target: ERBB4_R711C (clone: ERBB4_mut) (UniProt Q15303)
ERN1 = ERN1 (UniProt O75460)
FGFR1 = FGFR1 (UniProt P11362)
FGFR2 = FGFR2 (UniProt P21802)
FGFR3 = FGFR3 (UniProt P22607)
FGR = FGR (UniProt P09769)
FLT3 = FLT3 (UniProt P36888)
FYN = FYN (UniProt P06241)
GSK3A = GSK3A (UniProt P49840)
HER2 = HER2 (UniProt P04626)
INSRR = INSRR (UniProt P14616)

Protein sequences, listed by entry. Tags and fused reporters are not part of them. Lines headed by an entry give the natural chain unless they say otherwise; changes in a name come on top.
UniProt P29317, whole entry: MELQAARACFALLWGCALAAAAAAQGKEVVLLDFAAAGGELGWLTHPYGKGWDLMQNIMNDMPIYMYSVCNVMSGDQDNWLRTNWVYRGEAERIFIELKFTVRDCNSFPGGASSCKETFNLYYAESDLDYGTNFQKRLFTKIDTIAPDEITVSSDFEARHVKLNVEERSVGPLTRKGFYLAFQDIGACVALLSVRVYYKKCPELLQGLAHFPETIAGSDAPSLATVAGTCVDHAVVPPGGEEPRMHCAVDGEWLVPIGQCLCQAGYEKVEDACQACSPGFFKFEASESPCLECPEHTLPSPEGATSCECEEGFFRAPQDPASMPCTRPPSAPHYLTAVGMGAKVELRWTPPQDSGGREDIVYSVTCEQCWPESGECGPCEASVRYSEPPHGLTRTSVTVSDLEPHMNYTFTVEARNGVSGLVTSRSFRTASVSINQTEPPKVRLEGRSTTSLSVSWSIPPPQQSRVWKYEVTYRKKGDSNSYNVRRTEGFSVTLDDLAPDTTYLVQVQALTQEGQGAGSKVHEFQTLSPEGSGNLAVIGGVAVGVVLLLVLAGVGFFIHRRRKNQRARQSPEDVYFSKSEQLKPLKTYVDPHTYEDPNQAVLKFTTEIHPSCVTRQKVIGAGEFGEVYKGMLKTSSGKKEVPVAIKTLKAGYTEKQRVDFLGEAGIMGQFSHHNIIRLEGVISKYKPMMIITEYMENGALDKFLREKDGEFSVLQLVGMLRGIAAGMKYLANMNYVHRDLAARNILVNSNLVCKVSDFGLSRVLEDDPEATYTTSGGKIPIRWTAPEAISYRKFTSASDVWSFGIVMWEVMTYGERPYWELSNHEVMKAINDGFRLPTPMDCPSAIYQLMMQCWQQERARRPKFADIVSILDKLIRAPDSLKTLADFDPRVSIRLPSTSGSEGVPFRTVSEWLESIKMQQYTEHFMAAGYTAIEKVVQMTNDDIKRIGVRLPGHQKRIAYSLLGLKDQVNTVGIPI
UniProt O75460: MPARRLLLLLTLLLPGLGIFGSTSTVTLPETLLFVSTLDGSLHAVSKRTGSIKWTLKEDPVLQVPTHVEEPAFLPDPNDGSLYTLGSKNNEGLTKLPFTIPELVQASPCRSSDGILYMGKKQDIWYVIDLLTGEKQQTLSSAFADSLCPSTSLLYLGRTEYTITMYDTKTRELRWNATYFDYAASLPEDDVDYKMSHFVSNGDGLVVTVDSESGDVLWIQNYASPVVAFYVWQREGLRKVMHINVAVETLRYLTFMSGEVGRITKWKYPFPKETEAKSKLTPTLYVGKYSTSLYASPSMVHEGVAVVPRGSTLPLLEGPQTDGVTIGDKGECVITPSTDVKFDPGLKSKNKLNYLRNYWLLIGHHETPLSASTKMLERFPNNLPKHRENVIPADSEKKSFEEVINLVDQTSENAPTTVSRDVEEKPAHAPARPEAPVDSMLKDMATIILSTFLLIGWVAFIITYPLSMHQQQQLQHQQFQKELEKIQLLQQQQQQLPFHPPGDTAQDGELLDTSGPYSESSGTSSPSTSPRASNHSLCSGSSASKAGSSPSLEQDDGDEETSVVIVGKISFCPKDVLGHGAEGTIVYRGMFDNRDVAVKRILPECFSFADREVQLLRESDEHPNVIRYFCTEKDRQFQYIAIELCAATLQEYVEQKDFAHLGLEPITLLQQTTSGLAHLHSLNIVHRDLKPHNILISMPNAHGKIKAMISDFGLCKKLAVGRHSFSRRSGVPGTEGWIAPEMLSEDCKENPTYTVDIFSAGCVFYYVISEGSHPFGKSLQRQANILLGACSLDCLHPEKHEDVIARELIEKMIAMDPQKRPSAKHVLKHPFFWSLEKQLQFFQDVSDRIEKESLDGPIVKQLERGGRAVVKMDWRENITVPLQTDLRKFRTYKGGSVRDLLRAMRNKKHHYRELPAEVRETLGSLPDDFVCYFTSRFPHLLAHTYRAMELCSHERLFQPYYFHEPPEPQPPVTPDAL
UniProt P11362, whole entry, looked up: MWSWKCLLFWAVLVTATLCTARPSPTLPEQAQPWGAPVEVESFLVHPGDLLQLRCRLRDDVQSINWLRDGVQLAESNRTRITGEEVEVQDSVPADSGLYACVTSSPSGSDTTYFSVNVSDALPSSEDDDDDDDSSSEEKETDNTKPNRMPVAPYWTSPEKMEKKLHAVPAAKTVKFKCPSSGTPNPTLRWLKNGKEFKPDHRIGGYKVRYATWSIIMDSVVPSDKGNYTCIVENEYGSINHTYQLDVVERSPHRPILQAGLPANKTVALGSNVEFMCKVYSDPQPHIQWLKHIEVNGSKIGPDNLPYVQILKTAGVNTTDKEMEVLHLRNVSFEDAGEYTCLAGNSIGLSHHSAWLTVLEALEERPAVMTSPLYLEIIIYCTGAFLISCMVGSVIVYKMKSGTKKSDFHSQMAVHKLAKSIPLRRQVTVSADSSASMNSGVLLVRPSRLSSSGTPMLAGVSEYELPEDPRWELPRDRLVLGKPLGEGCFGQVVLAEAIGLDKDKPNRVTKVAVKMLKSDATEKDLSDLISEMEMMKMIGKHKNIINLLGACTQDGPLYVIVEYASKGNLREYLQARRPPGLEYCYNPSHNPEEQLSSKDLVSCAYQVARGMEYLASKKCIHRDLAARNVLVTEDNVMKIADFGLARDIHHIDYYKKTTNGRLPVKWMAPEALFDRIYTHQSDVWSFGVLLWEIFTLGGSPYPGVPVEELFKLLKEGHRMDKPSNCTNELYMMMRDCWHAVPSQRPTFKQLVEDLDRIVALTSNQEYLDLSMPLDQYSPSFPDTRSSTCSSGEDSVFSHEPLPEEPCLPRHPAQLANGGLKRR
UniProt P21802, whole entry, looked up: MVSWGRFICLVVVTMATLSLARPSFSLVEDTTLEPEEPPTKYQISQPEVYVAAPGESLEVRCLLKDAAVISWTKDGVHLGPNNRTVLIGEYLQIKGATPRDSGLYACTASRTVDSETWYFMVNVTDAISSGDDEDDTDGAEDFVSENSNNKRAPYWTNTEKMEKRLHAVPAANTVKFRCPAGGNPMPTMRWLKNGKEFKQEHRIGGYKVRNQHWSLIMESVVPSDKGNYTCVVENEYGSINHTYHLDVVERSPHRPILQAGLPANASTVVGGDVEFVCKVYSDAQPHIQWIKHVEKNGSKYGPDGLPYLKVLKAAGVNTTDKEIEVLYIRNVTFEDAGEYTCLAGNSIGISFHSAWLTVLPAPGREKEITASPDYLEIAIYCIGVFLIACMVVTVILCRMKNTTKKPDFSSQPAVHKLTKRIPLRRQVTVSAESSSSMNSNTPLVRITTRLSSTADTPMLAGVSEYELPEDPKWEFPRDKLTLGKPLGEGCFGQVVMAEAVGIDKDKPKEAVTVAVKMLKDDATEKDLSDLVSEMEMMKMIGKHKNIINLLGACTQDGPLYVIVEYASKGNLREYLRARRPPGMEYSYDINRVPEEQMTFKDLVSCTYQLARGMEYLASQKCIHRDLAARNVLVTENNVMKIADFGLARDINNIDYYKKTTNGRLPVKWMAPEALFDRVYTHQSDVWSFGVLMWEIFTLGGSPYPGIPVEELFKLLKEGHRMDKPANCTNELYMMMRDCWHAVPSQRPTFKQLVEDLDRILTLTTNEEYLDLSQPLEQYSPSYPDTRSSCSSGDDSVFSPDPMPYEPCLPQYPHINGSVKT
UniProt P06241, whole entry, looked up: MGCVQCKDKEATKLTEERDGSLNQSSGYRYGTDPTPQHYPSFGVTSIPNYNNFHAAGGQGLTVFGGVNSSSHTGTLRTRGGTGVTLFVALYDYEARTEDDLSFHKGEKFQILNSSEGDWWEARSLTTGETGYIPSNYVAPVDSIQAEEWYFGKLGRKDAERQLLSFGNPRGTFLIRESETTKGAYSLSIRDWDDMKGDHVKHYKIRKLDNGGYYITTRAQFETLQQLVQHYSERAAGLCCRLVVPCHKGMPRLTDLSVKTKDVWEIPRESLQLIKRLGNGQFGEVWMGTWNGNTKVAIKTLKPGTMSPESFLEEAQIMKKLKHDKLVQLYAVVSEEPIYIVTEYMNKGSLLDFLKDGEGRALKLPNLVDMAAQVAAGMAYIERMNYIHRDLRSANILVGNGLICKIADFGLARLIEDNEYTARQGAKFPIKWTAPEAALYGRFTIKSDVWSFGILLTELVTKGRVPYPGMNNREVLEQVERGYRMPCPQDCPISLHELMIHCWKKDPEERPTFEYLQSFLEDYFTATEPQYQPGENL
UniProt P49840: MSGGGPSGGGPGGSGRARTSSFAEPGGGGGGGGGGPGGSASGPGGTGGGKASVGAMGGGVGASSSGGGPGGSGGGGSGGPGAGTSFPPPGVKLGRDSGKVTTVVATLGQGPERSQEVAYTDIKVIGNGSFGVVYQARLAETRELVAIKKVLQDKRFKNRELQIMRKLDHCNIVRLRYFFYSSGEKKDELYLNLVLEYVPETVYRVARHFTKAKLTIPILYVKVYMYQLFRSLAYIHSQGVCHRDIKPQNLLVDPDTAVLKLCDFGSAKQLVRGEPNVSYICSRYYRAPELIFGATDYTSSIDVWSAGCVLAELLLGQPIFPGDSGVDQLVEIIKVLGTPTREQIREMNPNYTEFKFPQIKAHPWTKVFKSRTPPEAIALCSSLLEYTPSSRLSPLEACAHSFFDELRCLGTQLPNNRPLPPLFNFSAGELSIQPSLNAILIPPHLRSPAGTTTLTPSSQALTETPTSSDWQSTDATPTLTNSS
UniProt P14616: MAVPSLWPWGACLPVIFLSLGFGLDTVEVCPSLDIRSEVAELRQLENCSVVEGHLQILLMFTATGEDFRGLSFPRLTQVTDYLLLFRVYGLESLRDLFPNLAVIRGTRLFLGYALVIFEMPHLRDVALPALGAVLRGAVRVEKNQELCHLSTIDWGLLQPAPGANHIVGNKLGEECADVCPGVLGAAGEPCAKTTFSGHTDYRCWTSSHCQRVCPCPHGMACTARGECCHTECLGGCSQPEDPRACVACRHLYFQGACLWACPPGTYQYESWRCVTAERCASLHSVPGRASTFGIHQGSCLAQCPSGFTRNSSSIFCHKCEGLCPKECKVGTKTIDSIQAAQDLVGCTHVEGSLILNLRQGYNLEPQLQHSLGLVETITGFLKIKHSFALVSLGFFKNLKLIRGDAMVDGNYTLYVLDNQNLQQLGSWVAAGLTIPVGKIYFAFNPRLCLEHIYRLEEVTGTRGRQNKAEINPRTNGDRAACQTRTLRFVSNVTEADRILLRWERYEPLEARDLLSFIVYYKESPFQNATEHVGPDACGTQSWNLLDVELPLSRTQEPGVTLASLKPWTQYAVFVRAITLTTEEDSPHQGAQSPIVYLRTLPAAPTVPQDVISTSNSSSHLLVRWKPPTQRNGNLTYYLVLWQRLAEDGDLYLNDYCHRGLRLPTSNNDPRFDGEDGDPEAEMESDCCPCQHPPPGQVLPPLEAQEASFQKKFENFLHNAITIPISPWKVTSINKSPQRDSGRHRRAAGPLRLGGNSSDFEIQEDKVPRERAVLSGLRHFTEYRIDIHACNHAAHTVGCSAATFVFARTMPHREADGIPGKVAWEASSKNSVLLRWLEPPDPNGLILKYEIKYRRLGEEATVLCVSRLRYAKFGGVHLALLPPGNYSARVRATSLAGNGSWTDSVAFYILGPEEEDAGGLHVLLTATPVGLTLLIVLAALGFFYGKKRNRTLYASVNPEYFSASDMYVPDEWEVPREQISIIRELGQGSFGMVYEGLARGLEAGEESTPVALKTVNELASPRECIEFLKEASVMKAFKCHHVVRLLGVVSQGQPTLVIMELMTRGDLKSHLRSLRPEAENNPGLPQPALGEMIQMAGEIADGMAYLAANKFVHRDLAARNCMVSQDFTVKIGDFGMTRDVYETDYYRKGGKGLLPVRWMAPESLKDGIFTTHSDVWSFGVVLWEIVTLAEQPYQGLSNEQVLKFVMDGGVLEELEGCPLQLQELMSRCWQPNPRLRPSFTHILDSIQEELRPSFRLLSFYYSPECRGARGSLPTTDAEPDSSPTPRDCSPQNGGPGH

Measured: kinase-Nluc reporter destabilization hit call

NC(=O)c1ccc2nc(-c3ccc(C4(N)CCC4)cc3)c(-c3ccccc3)n2n1 (10 µM)
inactive: EGFR 0 | EGFR_G719S 0 | EGFR_G719S_T790M 0 | EGFR_L718V 0 | EGFR_L858R 0 | EGFR_L861Q 0 | EGFR_T790M 0 | EPHA2 = 0 | ERBB3 = 0 | [1] 0 | ERN1 = 0 | FGFR1 = 0 | FGFR2 = 0 | FGFR3 = 0 | FGR 0 | FLT3 = 0 | FYN 0 | GSK3A 0 | HER2 = 0 | INSRR 0

Cc1ccc(-c2csc(Cn3nc(CC4OCCCO4)c4ccccc4c3=O)n2)cc1 (10 µM)
inactive: EGFR 0 | EGFR_G719S 0 | EGFR_G719S_T790M 0 | EGFR_L718V 0 | EGFR_L858R 0 | EGFR_L861Q 0 | EGFR_T790M 0 | EPHA2 = 0 | ERBB3 = 0 | [1] 0 | ERN1 = 0 | FGFR1 = 0 | FGFR2 = 0 | FGFR3 = 0 | FGR 0 | FLT3 = 0 | FYN 0 | GSK3A 0 | HER2 = 0 | INSRR 0

OCCC#Cc1nc(-c2ccc(F)cc2)c(-c2ccncc2)n1CCCc1ccccc1 (2.5 µM)
inactive: EGFR 0 | EGFR_G719S 0 | EGFR_G719S_T790M 0 | EGFR_L718V 0 | EGFR_L858R 0 | EGFR_L861Q 0 | EGFR_T790M 0 | EPHA2 = 0 | ERBB3 = 0 | [1] 0 | ERN1 = 0 | FGFR1 = 0 | FGFR2 = 0 | FGFR3 = 0 | FGR 0 | FLT3 = 0 | FYN 0 | GSK3A 0 | HER2 = 0 | INSRR 0

CC[C@H](C)[C@H](NC(=O)[C@H](CCCCN)NC(=O)[C@H](CC(C)C)NC(=O)[C@@H]1CCCN1C(=O)[C@H](CCC(=O)O)NC(=O)[C@H](Cc1ccc(O)cc1)NC(=O)[C@@H](NC(=O)[C@H](CO)NC(=O)CNC(=O)[C@H](CO)NC(=O)[C@H](CCCN=C(N)N)NC(=O)[C@H](CCCCN)NC(=O)[C@@H](NC(=O)[C@@H](N)CCCN=C(N)N)[C@@H](C)O)C(C)C)C(=O)O [Malantide] (10 µM)
inactive: EGFR 0 | EGFR_G719S 0 | EGFR_G719S_T790M 0 | EGFR_L718V 0 | EGFR_L858R 0 | EGFR_L861Q 0 | EGFR_T790M 0 | EPHA2 = 0 | ERBB3 = 0 | [1] 0 | ERN1 = 0 | FGFR1 = 0 | FGFR2 = 0 | FGFR3 = 0 | FGR 0 | FLT3 = 0 | FYN 0 | GSK3A 0 | HER2 = 0 | INSRR 0

CC(C)=CCC/C(C)=C/CC/C(C)=C/CSc1ccccc1C(=O)O [Salirasib] (10 µM)
inactive: EGFR 0 | EGFR_G719S 0 | EGFR_G719S_T790M 0 | EGFR_L718V 0 | EGFR_L858R 0 | EGFR_L861Q 0 | EGFR_T790M 0 | EPHA2 = 0 | ERBB3 = 0 | [1] 0 | ERN1 = 0 | FGFR1 = 0 | FGFR2 = 0 | FGFR3 = 0 | FGR 0 | FLT3 = 0 | FYN 0 | GSK3A 0 | HER2 = 0 | INSRR 0

CN(C)CCCn1cc(C2=C(c3c[nH]c4ccccc34)C(=O)NC2=O)c2ccccc21 [Bisindolylmaleimide I] (2.5 µM)
inactive: EGFR 0 | EGFR_G719S 0 | EGFR_G719S_T790M 0 | EGFR_L718V 0 | EGFR_L858R 0 | EGFR_L861Q 0 | EGFR_T790M 0 | EPHA2 = 0 | ERBB3 = 0 | [1] 0 | ERN1 = 0 | FGFR1 = 0 | FGFR2 = 0 | FGFR3 = 0 | FGR 0 | FLT3 = 0 | FYN 0 | GSK3A 0 | HER2 = 0 | INSRR 0

C=CC(=O)N[C@H]1CCOC[C@H]1Nc1ncc2cc(-c3c(Cl)c(OC)cc(OC)c3Cl)ccc2n1 [Fisogatinib] (10 µM)
inactive: EGFR 0 | EGFR_G719S 0 | EGFR_G719S_T790M 0 | EGFR_L718V 0 | EGFR_L858R 0 | EGFR_L861Q 0 | EGFR_T790M 0 | EPHA2 = 0 | ERBB3 = 0 | [1] 0 | ERN1 = 0 | FGFR1 = 0 | FGFR2 = 0 | FGFR3 = 0 | FGR 0 | FLT3 = 0 | FYN 0 | GSK3A 0 | HER2 = 0 | INSRR 0

NC(=O)c1cccc2c(N[C@H](CN3CCC3)c3ccc(Cl)c(C(F)(F)F)c3)ncnc12 (10 µM)
inactive: EGFR 0 | EGFR_G719S 0 | EGFR_G719S_T790M 0 | EGFR_L718V 0 | EGFR_L858R 0 | EGFR_L861Q 0 | EGFR_T790M 0 | EPHA2 = 0 | ERBB3 = 0 | [1] 0 | ERN1 = 0 | FGFR1 = 0 | FGFR2 = 0 | FGFR3 = 0 | FGR 0 | FLT3 = 0 | FYN 0 | GSK3A 0 | HER2 = 0 | INSRR 0

O=c1[nH]nc(Sc2ncc([N+](=O)[O-])s2)n1-c1ccc2c(c1)OCCO2 (2.5 µM)
inactive: EGFR 0 | EGFR_G719S 0 | EGFR_G719S_T790M 0 | EGFR_L718V 0 | EGFR_L858R 0 | EGFR_L861Q 0 | EGFR_T790M 0 | EPHA2 = 0 | ERBB3 = 0 | [1] 0 | ERN1 = 0 | FGFR1 = 0 | FGFR2 = 0 | FGFR3 = 0 | FGR 0 | FLT3 = 0 | FYN 0 | GSK3A 0 | HER2 = 0 | INSRR 0

4 successive compounds from above, for reference:
CN(C)CCCn1cc(C2=C(c3c[nH]c4ccccc34)C(=O)NC2=O)c2ccccc21 [Bisindolylmaleimide I] (2.5 µM)
inactive: EGFR 0 | EGFR_G719S 0 | EGFR_G719S_T790M 0 | EGFR_L718V 0 | EGFR_L858R 0 | EGFR_L861Q 0 | EGFR_T790M 0 | EPHA2 = 0 | ERBB3 = 0 | [1] 0 | ERN1 = 0 | FGFR1 = 0 | FGFR2 = 0 | FGFR3 = 0 | FGR 0 | FLT3 = 0 | FYN 0 | GSK3A 0 | HER2 = 0 | INSRR 0

C=CC(=O)N[C@H]1CCOC[C@H]1Nc1ncc2cc(-c3c(Cl)c(OC)cc(OC)c3Cl)ccc2n1 [Fisogatinib] (10 µM)
inactive: EGFR 0 | EGFR_G719S 0 | EGFR_G719S_T790M 0 | EGFR_L718V 0 | EGFR_L858R 0 | EGFR_L861Q 0 | EGFR_T790M 0 | EPHA2 = 0 | ERBB3 = 0 | [1] 0 | ERN1 = 0 | FGFR1 = 0 | FGFR2 = 0 | FGFR3 = 0 | FGR 0 | FLT3 = 0 | FYN 0 | GSK3A 0 | HER2 = 0 | INSRR 0

NC(=O)c1cccc2c(N[C@H](CN3CCC3)c3ccc(Cl)c(C(F)(F)F)c3)ncnc12 (10 µM)
inactive: EGFR 0 | EGFR_G719S 0 | EGFR_G719S_T790M 0 | EGFR_L718V 0 | EGFR_L858R 0 | EGFR_L861Q 0 | EGFR_T790M 0 | EPHA2 = 0 | ERBB3 = 0 | [1] 0 | ERN1 = 0 | FGFR1 = 0 | FGFR2 = 0 | FGFR3 = 0 | FGR 0 | FLT3 = 0 | FYN 0 | GSK3A 0 | HER2 = 0 | INSRR 0

O=c1[nH]nc(Sc2ncc([N+](=O)[O-])s2)n1-c1ccc2c(c1)OCCO2 (2.5 µM)
inactive: EGFR 0 | EGFR_G719S 0 | EGFR_G719S_T790M 0 | EGFR_L718V 0 | EGFR_L858R 0 | EGFR_L861Q 0 | EGFR_T790M 0 | EPHA2 = 0 | ERBB3 = 0 | [1] 0 | ERN1 = 0 | FGFR1 = 0 | FGFR2 = 0 | FGFR3 = 0 | FGR 0 | FLT3 = 0 | FYN 0 | GSK3A 0 | HER2 = 0 | INSRR 0

(continued)

Nc1n[nH]c(N)c1N=Nc1ccc(O)cc1 (10 µM)
inactive: EGFR 0 | EGFR_G719S 0 | EGFR_G719S_T790M 0 | EGFR_L718V 0 | EGFR_L858R 0 | EGFR_L861Q 0 | EGFR_T790M 0 | EPHA2 = 0 | ERBB3 = 0 | [1] 0 | ERN1 = 0 | FGFR1 = 0 | FGFR2 = 0 | FGFR3 = 0 | FGR 0 | FLT3 = 0 | FYN 0 | GSK3A 0 | HER2 = 0 | INSRR 0

O=C1c2cccc(O)c2C(=O)c2c(O)cccc21 [Danthron] (10 µM)
inactive: EGFR 0 | EGFR_G719S 0 | EGFR_G719S_T790M 0 | EGFR_L718V 0 | EGFR_L858R 0 | EGFR_L861Q 0 | EGFR_T790M 0 | EPHA2 = 0 | ERBB3 = 0 | [1] 0 | ERN1 = 0 | FGFR1 = 0 | FGFR2 = 0 | FGFR3 = 0 | FGR 0 | FLT3 = 0 | FYN 0 | GSK3A 0 | HER2 = 0 | INSRR 0

Cc1ncc(F)c(Nc2n[nH]c3c2CN(C(=O)N2C[C@@H](C)N(CC4CCOCC4)C[C@@H]2C)C3(C)C)n1 (10 µM)
inactive: EGFR 0 | EGFR_G719S 0 | EGFR_G719S_T790M 0 | EGFR_L718V 0 | EGFR_L858R 0 | EGFR_L861Q 0 | EGFR_T790M 0 | EPHA2 = 0 | ERBB3 = 0 | [1] 0 | ERN1 = 0 | FGFR1 = 0 | FGFR2 = 0 | FGFR3 = 0 | FGR 0 | FLT3 = 0 | FYN 0 | GSK3A 0 | HER2 = 0 | INSRR 0

NC(=O)c1nc(-c2c(F)cccc2Cl)oc1Nc1ccc(C(=O)N2CCOCC2)cc1 (10 µM)
inactive: EGFR 0 | EGFR_G719S 0 | EGFR_G719S_T790M 0 | EGFR_L718V 0 | EGFR_L858R 0 | EGFR_L861Q 0 | EGFR_T790M 0 | EPHA2 = 0 | ERBB3 = 0 | [1] 0 | ERN1 = 0 | FGFR1 = 0 | FGFR2 = 0 | FGFR3 = 0 | FGR 0 | FLT3 = 0 | FYN 0 | GSK3A 0 | HER2 = 0 | INSRR 0

Cc1ccc(-n2c(-c3ccc(O)cc3O)n[nH]c2=O)cc1 (10 µM)
inactive: EGFR 0 | EGFR_G719S 0 | EGFR_G719S_T790M 0 | EGFR_L718V 0 | EGFR_L858R 0 | EGFR_L861Q 0 | EGFR_T790M 0 | EPHA2 = 0 | ERBB3 = 0 | [1] 0 | ERN1 = 0 | FGFR1 = 0 | FGFR2 = 0 | FGFR3 = 0 | FGR 0 | FLT3 = 0 | GSK3A 0
active: FYN 1 | HER2 = 1 | INSRR 1

CC(C)n1cnnc1-c1cccc(NC(=O)c2cc3ccc(F)cc3[nH]2)n1 (2.5 µM)
inactive: EGFR 0 | EGFR_G719S 0 | EGFR_G719S_T790M 0 | EGFR_L718V 0 | EGFR_L858R 0 | EGFR_L861Q 0 | EGFR_T790M 0 | EPHA2 = 0 | ERBB3 = 0 | [1] 0 | ERN1 = 0 | FGFR1 = 0 | FGFR2 = 0 | FGFR3 = 0 | FGR 0 | FLT3 = 0 | FYN 0 | GSK3A 0 | HER2 = 0 | INSRR 0

N#C/C(=C\c1ccc[nH]1)c1ccc(Cl)c(Cl)c1 (2.5 µM)
inactive: EGFR 0 | EGFR_G719S 0 | EGFR_G719S_T790M 0 | EGFR_L718V 0 | EGFR_L858R 0 | EGFR_L861Q 0 | EGFR_T790M 0 | EPHA2 = 0 | ERBB3 = 0 | [1] 0 | ERN1 = 0 | FGFR1 = 0 | FGFR2 = 0 | FGFR3 = 0 | FGR 0 | FLT3 = 0 | FYN 0 | GSK3A 0 | HER2 = 0 | INSRR 0

C[C@@H]1CN(Cc2cn[nH]c2-c2ccc(C#N)cc2)CCN1c1ccc(C(F)(F)F)cn1 (2.5 µM)
inactive: EGFR 0 | EGFR_G719S 0 | EGFR_G719S_T790M 0 | EGFR_L718V 0 | EGFR_L858R 0 | EGFR_L861Q 0 | EGFR_T790M 0 | EPHA2 = 0 | ERBB3 = 0 | [1] 0 | ERN1 = 0 | FGFR1 = 0 | FGFR2 = 0 | FGFR3 = 0 | FGR 0 | FLT3 = 0 | FYN 0 | GSK3A 0 | HER2 = 0 | INSRR 0

N#Cc1cn([C@@H]2O[C@H](CO)[C@@H](O)[C@H]2O)c2nc[nH]c(=O)c12 [Jaspamycin] (10 µM)
inactive: EGFR 0 | EGFR_G719S 0 | EGFR_G719S_T790M 0 | EGFR_L718V 0 | EGFR_L858R 0 | EGFR_L861Q 0 | EGFR_T790M 0 | EPHA2 = 0 | ERBB3 = 0 | [1] 0 | ERN1 = 0 | FGFR1 = 0 | FGFR2 = 0 | FGFR3 = 0 | FGR 0 | FLT3 = 0 | FYN 0 | GSK3A 0 | HER2 = 0 | INSRR 0
